Source: PubChem BioAssay AID1259285 (Sanger Institute, 2017)

- Test: 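Kinases needed for HCC56 growth and kinases whose loss boosts drug effects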 (primary screen)
- System: human HCC56 colorectal cancer cells
- Reagent: siRNA pool against human genes
- Conditions: DMSO vehicle, or anchor drug BYL719 at 1 µM, cetuximab at 5 µg/ml, or trametinib at 10 nM
- Measurement: 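Viability as a ratio to non-targeting pool wells, averaged over replicates and turned into a robust z-score; synergy scores with BYL719, cetuximab or trametinib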
- Direction: viability robust z-score, no drug: higher = more viable cells, weaker knock-down effect; viability vs non-targeting pool, no drug: higher = more viable cells
- Rule for the call: 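a knock-down counts as essential if its viability z-score without drug is under -3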
- Meaning of the calls: active = essential without drug; inactive = no change without drug
The deposit covers 794 reagents; this is a part drawn at random. Of all reagents, 20 (2.5%) are marked active. 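Calls rest on the drug-free arm alone and ignore synergy scores; viability ratios seem to be capped at 1.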 Further read-outs or replicates are left out here. The record does not give: the amount of reagent, the time to read-out.

| gene knocked down | viability robust z-score, no drug | viability vs non-targeting pool, no drug | call |
| --- | --- | --- | --- |
| HIPK1 | 0.458 | 1 | inactive |
| PRKACG | 0.458 | 1 | inactive |
| ELP1 | 0.458 | 1 | inactive |
| ROS1 | 0.458 | 1 | inactive |
| SCYL1 | 0.458 | 1 | inactive |
| EFNA4 | 0.458 | 1 | inactive |
| PTPN11 | 0.458 | 1 | inactive |
| EFNB3 | -1.24 | 0.854 | inactive |
| MATK | 0.458 | 1 | inactive |
| NLK | 0.458 | 1 | inactive |
| CHD9 | 0.458 | 1 | inactive |
| CAMK2N1 | -1.14 | 0.863 | inactive |
| IPPK | 0.458 | 1 | inactive |
| CDC42BPA | 0.458 | 1 | inactive |
| CSNK1E | 0.458 | 1 | inactive |
| CDKL2 | 0.458 | 1 | inactive |
| NRBP1 | 0.458 | 1 | inactive |
| BCOR | 0.458 | 1 | inactive |
| AKT1 | 0.458 | 1 | inactive |
| MARK2 | 0.458 | 1 | inactive |
| GCK | -2.05 | 0.784 | inactive |
| LMTK1 | 0.458 | 1 | inactive |
| CUL1 | 0.458 | 1 | inactive |
| MAPK13 | 0.458 | 1 | inactive |
| STK3 | 0.458 | 1 | inactive |
| PRKAR1A | 0.458 | 1 | inactive |
| CDKN1C | 0.32 | 0.988 | inactive |
| CAMK1D | 0.458 | 1 | inactive |
| UCK2 | 0.458 | 1 | inactive |
| RPS6KB2 | 0.458 | 1 | inactive |
| CDK12 | 0.458 | 1 | inactive |
| PDK2 | 0.458 | 1 | inactive |
| UHMK1 | 0.458 | 1 | inactive |
| DNMT3A | -0.52 | 0.916 | inactive |
| CDKN2C | -1.05 | 0.871 | inactive |
| PNCK | 0.458 | 1 | inactive |
| DDR1 | 0.458 | 1 | inactive |
| TRPM6 | 0.458 | 1 | inactive |
| CERT1 | 0.458 | 1 | inactive |
| PIP4K2B | 0.458 | 1 | inactive |
| NR4A2 | -4.87 | 0.542 | active |
| NUAK2 | -0.00578 | 0.96 | inactive |
| NIM1K | 0.458 | 1 | inactive |
| PRKDC | -0.432 | 0.924 | inactive |
| ALK | -2.3 | 0.763 | inactive |
| NME6 | -1.04 | 0.871 | inactive |
| CDKL3 | 0.458 | 1 | inactive |
| WNK4 | 0.458 | 1 | inactive |
| CIT | -2.81 | 0.719 | inactive |
| BCKDK | 0.458 | 1 | inactive |
| ERBB3 | 0.456 | 1 | inactive |
| NRK | 0.171 | 0.975 | inactive |
| SYK | -3.7 | 0.643 | active |
| CAMK2G | -0.465 | 0.921 | inactive |
| AKAP9 | 0.458 | 1 | inactive |
| CDC42BPB | 0.458 | 1 | inactive |
| GK2 | -1.01 | 0.874 | inactive |
| PRPS1 | -0.112 | 0.951 | inactive |
| CTNNB1 | -3.4 | 0.668 | active |
| CHKA | -2.15 | 0.776 | inactive |
| EFNA3 | 0.458 | 1 | inactive |
| ATP23 | 0.458 | 1 | inactive |
| PDGFRB | -2.06 | 0.783 | inactive |

Not a retest: 5 of the entries above.
| gene knocked down | viability robust z-score, no drug | viability vs non-targeting pool, no drug | call |
| --- | --- | --- | --- |
| CTNNB1 | -3.4 | 0.668 | active |
| CHKA | -2.15 | 0.776 | inactive |
| EFNA3 | 0.458 | 1 | inactive |
| ATP23 | 0.458 | 1 | inactive |
| PDGFRB | -2.06 | 0.783 | inactive |
